## Cleaved PARP after 72 h of treatment

Data from the primary screen of doi:10.1371/journal.pone.0140310, rounded.

Drugs:
STA-4783 (0.03 µM): CN(NC(=O)CC(=O)NN(C)C(=S)c1ccccc1)C(=S)c1ccccc1
A-769662 (10 µM): N#Cc1c(O)c2c(-c3ccc(-c4ccccc4O)cc3)csc2[nH]c1=O
KU-0063794 (0.1 µM): COc1ccc(-c2ccc3c(N4CCOCC4)nc(N4C[C@@H](C)O[C@@H](C)C4)nc3n2)cc1CO
embelin (6 µM): CCCCCCCCCCCC1=C(O)C(=O)C=C(O)C1=O
lestaurtinib (0.02 µM): C[C@]12O[C@H](C[C@]1(O)CO)n1c3ccccc3c3c4c(c5c6ccccc6n2c5c31)CNC4=O
dasatinib (0.02 µM): Cc1nc(Nc2ncc(C(=O)Nc3c(C)cccc3Cl)s2)cc(N2CCN(CCO)CC2)n1
tanespimycin (0.01 µM): C=CCNC1=C2C[C@@H](C)C[C@H](OC)[C@H](O)[C@@H](C)/C=C(\C)[C@H](OC(N)=O)[C@@H](OC)/C=C\C=C(/C)C(=O)NC(=CC1=O)C2=O
lenalidomide (5 µM): Nc1cccc2c1CN(C1CCC(=O)NC1=O)C2=O (centres undefined)

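Human melanoma cells were exposed to a pair of drugs for 72 h in 1,536-well plates and read by automated microscopy after fixing and staining. The read-out is the fraction of cleaved-PARP-positive nuclei, in % of that fraction in the DMSO control; 200 means twice the control level of this apoptosis marker. Concentrations were fixed for each drug; these are the higher of two levels. These are primary screening values without error estimates. Basal and induced levels differ widely between cell lines.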 Only some of the drugs and lines screened are listed, without regard to their results. An entry leaves out what has no value listed here. A dash means that no value is listed here.

Drugs	A375	SK-MEL-5	G-361	A2058	LB2518-MEL	IPC-298	LOX IMVI	UACC-257	WM3619	501mel	C32	WM115
STA-4783 and A-769662	70.9	305	529	1670	-	97.3	26.5	34.9	1100	-	1260	1940
lenalidomide and tanespimycin	52.7	237	208	352	40.4	184	121	67.8	171	-	408	924
lestaurtinib and dasatinib	179	231	166	378	-	80.5	935	47.3	125	-	336	392
STA-4783 and dasatinib	-	111	361	1500	1130	226	2710	302	2080	-	5910	3390
embelin and dasatinib	202	124	145	191	88.2	246	633	25.6	141	271	164	299
STA-4783 and KU-0063794	123	157	143	1390	494	148	90.6	23.5	1160	3660	691	952
dasatinib and tanespimycin	59.8	179	84.6	395	43.5	106	136	150	273	-	349	4110
lestaurtinib and embelin	40.5	101	205	75.1	267	296	101	34.9	233	57.2	85.9	112
STA-4783 and lestaurtinib	-	1500	1050	1410	479	121	233	105	1110	-	562	1220
A-769662 and lenalidomide	38.1	122	101	81.3	36.4	41.4	136	17.9	97.8	130	84.4	50.5
A-769662 and tanespimycin	118	156	158	216	132	220	72.5	120	170	81.2	894	689
lenalidomide and dasatinib	317	254	177	195	270	186	264	166	120	-	634	465
STA-4783 and embelin	107	181	269	2220	418	216	64.7	60.0	1270	2350	409	1330
A-769662 and embelin	48.9	46.2	90.5	90.0	109	85.3	151	81.6	95.1	78.9	92.8	67.9
dasatinib and KU-0063794	222	117	152	291	105	80.2	523	34.8	252	171	147	345
lestaurtinib and lenalidomide	37.0	263	105	126	77.8	112	158	77.9	121	-	176	569
STA-4783 and lenalidomide	-	319	515	2450	1130	113	50.7	65.6	884	-	4470	2570
embelin and KU-0063794	128	303	101	164	76.5	129	116	14.7	101	56.6	105	133
tanespimycin and embelin	140	92.6	228	144	122	49.0	177	68.3	202	305	804	2860
tanespimycin and KU-0063794	152	223	198	163	-	200	66.3	50.6	126	-	744	1180
lenalidomide and KU-0063794	95.2	216	70.1	82.6	87.0	168	80.0	16.5	161	100	192	161
lenalidomide and embelin	102	113	119	113	64.6	74.7	66.9	33.3	101	310	101	56.0
lestaurtinib and KU-0063794	209	192	284	124	167	153	158	97.6	227	136	656	43.2

The last 2 entries again:

- lenalidomide and embelin : A375: 102; SK-MEL-5: 113; G-361: 119; A2058: 113; LB2518-MEL: 64.6; IPC-298: 74.7; LOX IMVI: 66.9; UACC-257: 33.3; WM3619: 101; 501mel: 310; C32: 101; WM115: 56.0
- lestaurtinib and KU-0063794 : A375: 209; SK-MEL-5: 192; G-361: 284; A2058: 124; LB2518-MEL: 167; IPC-298: 153; LOX IMVI: 158; UACC-257: 97.6; WM3619: 227; 501mel: 136; C32: 656; WM115: 43.2